Measured values as given in PubChem BioAssay AID338 (DTP/NCI, 2004).
The list is a part of this screen's results and no random one: its compounds were picked by chemical class. Not every dose and run of a compound is shown. T/C gives the treated animals as a percentage of the vehicle group. Where survival is the endpoint, this PubChem deposit counts one and a half times the control or more as active, and values a quarter to a half above the control carry no call in these data; other NCI protocols may use other cut-offs. Some T/C values are marked as having no survivor count here; that says nothing about deaths at the dose. Schedules are NCI's codes, read here as Q, the interval in days (D) or hours (H), X, the number of doses. Some doses were run more than once; the results are listed from low to high.

Test system: BDF1 mice, P388 leukemia (terephthalanilide-resistant), survival T/C
Experiment: NCI In Vivo Anticancer Drug Screen. Data for tumor model P388 Leukemia resistant to A Terephthalanilide; NSC 38280 (intraperitoneal) in B6D2F1 (BDF1) mice
Conditions: T/C endpoint: median survival time, schedule: Q01DX010 (ip), vehicle: saline, higher T/C = longer survival
Experimental: The antitumor activity of compounds was measured in mice bearing transplantable tumors. Survival or tumor size were measured and the results are expressed as the measurement made in the treated group (T) divided by the measurement made in the vehicle treated control group (C). The tumor model used in this assay is P388 Leukemia resistant to A Terephthalanilide; NSC 38280 (intraperitoneal) in B6D2F1 (BDF1) mice

For `ClCCNCCCl`, the T/C (dose: 18.8 mg/kg/injection) was 100 [survivor count not shown] and 122 % of control [survivor count not shown], the T/C (dose: 37.5 mg/kg/injection) was 126 [survivor count not shown] and 133 % of control [survivor count not shown] and the T/C (dose: 75.0 mg/kg/injection) was 94 % of control [survivor count not shown].
`O=C(O)CN(CCCl)CCCl` was tested, and the T/C (dose: 0.63 mg/kg/injection) was 133 [survivor count not shown] and 140 % of control [survivor count not shown], the T/C (dose: 1.25 mg/kg/injection) was 150 [survivor count not shown] and 166 % of control [survivor count not shown] and the T/C (dose: 2.5 mg/kg/injection) was 165 [survivor count not shown] and 222 % of control [survivor count not shown]. The T/C (dose: 5.0 mg/kg/injection) was 88 % of control [survivor count not shown].
For `NC1CCCCC1.NP(=O)(O)N(CCCl)CCCl`, the T/C (dose: 31.3 mg/kg/injection) was 188 [survivor count not shown] and 263 % of control [survivor count not shown] and the T/C (dose: 62.5 mg/kg/injection) was 136 [survivor count not shown] and 158 % of control [survivor count not shown].
`NC(Cc1cccc(N(CCCl)CCCl)c1)C(=O)O` (configuration not stated) was tested, and the T/C (dose: 0.63 mg/kg/injection) was 113 % of control [survivor count not shown], the T/C (dose: 1.25 mg/kg/injection) was 104 % of control [survivor count not shown] and the T/C (dose: 2.5 mg/kg/injection) was 90 % of control [survivor count not shown]. The T/C (dose: 313.0 micrograms/kg/injection) was 95 % of control [survivor count not shown], the T/C (dose: 625.0 micrograms/kg/injection) was 100 % of control [survivor count not shown] and the T/C (dose: 1250.0 micrograms/kg/injection) was 122 % of control [survivor count not shown].
`NC(Cc1ccccc1N(CCCl)CCCl)C(=O)O` (configuration not stated) was tested, and the T/C (dose: 125.0 micrograms/kg/injection) was 127 % of control [survivor count not shown], the T/C (dose: 250.0 micrograms/kg/injection) was 100 % of control [survivor count not shown] and the T/C (dose: 500.0 micrograms/kg/injection) was 136 % of control [survivor count not shown]. The T/C (dose: 1000.0 micrograms/kg/injection) was 122 % of control [survivor count not shown].
`CC(C(=O)O)N(CCCl)CCCl` (configuration not stated) was tested, and the T/C (dose: 0.5 mg/kg/injection) was 127 [survivor count not shown] and 130 % of control [survivor count not shown], the T/C (dose: 1.0 mg/kg/injection) was 166 [survivor count not shown] and 210 % of control [survivor count not shown] and the T/C (dose: 2.0 mg/kg/injection) was 215 [survivor count not shown] and 233 % of control [survivor count not shown]. The T/C (dose: 4.0 mg/kg/injection) was 105 % of control [survivor count not shown].
For `ClCCN(CCCl)Cc1nc2ccccc2[nH]1`, the T/C (dose: 1.25 mg/kg/injection) was 100 % of control [survivor count not shown], the T/C (dose: 2.5 mg/kg/injection) was 100 % of control [survivor count not shown] and the T/C (dose: 5.0 mg/kg/injection) was 109 % of control [survivor count not shown]. The T/C (dose: 10.0 mg/kg/injection) was 90 % of control [survivor count not shown].
